Converted amounts (≈) assume the structure as drawn.

This assay concerns S. aureus F-597. The experiment in a line: Antibacterial activity (MIC, agar dilution, standard method of Japan Society of Chemotherapy) against S. aureus F-597**. Format: cell-based. To be noted: Staphylococcus aureus, MRSA, 20 h. An excerpt: According to the standard method of Japan Society of Chemotherapy [CHEMOTHERAPY, vol.
**: MRSA (methicillin-resistant S. aureus)

On to `O=C(O)c1cn(C2CC2)c2cc(N3CCNCC3)c(F)cc2c1=O` [Compound B, 1-cyclopropyl-6-fluoro-7-(1-piperazinyl)-1,4-dihydro-4-oxoquinoline-3-carboxylic acid, reference compound], for which it took 6.25 µg/mL (≈ 18.9 µM) to inhibit growth (MIC).

One may read the MIC as the smallest concentration in the dilution series that meets the test's criterion for growth inhibition. Low values mean inhibition by little substance, high ones a need for much substance.

These data come from patent US5935952A, “Quinolone- or naphthylidone-carboxylic acid derivates or their salts” (Toyama Chemical Co., LTD., priority 1994, dated 1999).
